# Source: publication PMC11852855
# No constants are given. Whether binding was seen depends on the method and setting. Binding seen in cells or lysates may run through a third protein. Binding can be weak; no strength is given. Tags and fused reporters may be left off the sequences shown.
# What was measured:
# [1] = target: T1, Flag-CLTA (clathrin light chain) (UniProt P09496); assay: co-IP; HEK 293T cells co-transfected with the plasmids, 24 h; lysed at 4°C in NP40 buffer; antibody on protein G Dynabeads (anti-Flag binding beads), washed in 0.02% PBST, eluted with 50 mM glycine pH 2.8; immunoblot
# T1 sequence: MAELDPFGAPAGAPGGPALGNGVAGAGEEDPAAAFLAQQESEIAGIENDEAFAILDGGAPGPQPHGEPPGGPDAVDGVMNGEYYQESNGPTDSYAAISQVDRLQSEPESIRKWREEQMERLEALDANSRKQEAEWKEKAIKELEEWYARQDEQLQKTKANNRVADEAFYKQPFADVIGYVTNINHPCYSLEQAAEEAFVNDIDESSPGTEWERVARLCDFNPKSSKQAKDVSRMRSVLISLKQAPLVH
# [2] = target: T2, Flag-EPS15 (UniProt P42566); assay: as above
# T2 sequence: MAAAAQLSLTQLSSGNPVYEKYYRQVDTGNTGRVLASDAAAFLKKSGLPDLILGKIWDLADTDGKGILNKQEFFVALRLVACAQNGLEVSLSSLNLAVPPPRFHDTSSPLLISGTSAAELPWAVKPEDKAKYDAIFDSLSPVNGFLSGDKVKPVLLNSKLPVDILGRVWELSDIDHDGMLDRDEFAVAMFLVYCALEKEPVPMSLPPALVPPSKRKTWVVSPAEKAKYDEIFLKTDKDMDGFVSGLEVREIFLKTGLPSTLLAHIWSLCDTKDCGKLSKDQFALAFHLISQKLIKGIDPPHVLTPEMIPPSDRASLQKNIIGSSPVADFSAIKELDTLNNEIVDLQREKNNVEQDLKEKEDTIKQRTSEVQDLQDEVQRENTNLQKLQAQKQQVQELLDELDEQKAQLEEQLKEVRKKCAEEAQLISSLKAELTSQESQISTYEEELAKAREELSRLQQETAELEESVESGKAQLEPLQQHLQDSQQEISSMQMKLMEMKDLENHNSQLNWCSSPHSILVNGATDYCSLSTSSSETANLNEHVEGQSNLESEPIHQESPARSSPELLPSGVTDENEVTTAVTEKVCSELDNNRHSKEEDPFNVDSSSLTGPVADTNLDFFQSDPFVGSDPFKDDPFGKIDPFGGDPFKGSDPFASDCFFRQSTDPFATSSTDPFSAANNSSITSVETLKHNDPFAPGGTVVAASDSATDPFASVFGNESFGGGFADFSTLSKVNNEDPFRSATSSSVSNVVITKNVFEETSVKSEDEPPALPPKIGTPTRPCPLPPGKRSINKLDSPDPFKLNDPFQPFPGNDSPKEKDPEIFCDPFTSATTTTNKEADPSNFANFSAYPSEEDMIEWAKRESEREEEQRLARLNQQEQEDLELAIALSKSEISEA
substance,measurement,setting,value
HA-E (PEDV envelope protein) (porcine epidemic diarrhea virus (PEDV)),binding,[1],binds
same,binding,[2],binds
